In PMC4966312:
Where a chain is given by its changes, count along the chain named. No constants are given. Whether binding was seen depends on the method and setting. For part of these data: In cells and extracts the contact can be indirect. Some entries that bind do so weakly or less than the wild type. Sequences can lack the tags named with a protein. One block for each binder: values may come before it.

Experiments:
[1] = target: T1, GFP-tagged NSMCE3 Leu264Phe (human) (UniProt Q96MG7); test: co-IP; GFP-tagged NSMCE3 expressed in U2OS cells (with Myc-NSMCE1 or alone), lysate adjusted to 150 mM NaCl, GFP-Trap_MA beads, 4°C for 2 hours, immunoblotting
T1 sequence: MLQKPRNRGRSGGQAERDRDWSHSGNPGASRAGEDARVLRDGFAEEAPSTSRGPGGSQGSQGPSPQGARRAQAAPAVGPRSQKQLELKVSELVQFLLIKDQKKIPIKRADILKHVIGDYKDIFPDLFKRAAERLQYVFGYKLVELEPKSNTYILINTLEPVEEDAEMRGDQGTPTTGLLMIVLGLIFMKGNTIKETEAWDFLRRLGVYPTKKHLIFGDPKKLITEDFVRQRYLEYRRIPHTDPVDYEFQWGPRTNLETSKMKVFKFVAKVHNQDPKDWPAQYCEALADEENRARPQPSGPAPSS

[2] = target: T2, NSMCE3 Leu264Phe fused to the Gal4 DNA-binding domain (human) (UniProt Q96MG7); test: two-hybrid; NSMCE3 (WT or mutated) fused to the Gal4 DNA-binding domain, NSMCE1 or NSMCE4 fused to the Gal4-activation domain, coexpressed in yeast; scored on His- plates with 5 mM 3-amino-1,2,4-triazol; 30°C
T2 sequence: T1 sequence

[3] = target: T3, NSMCE3 (WT) fused to the Gal4 DNA-binding domain (human) (UniProt Q96MG7); test: as above
T3 sequence: T1 sequence with F264L

[4] = target: T4, GFP-tagged NSMCE3 (WT) (human) (UniProt Q96MG7); test: co-IP; GFP-tagged NSMCE3 expressed in U2OS cells (with Myc-NSMCE1 or alone), lysate adjusted to 150 mM NaCl, GFP-Trap_MA beads, 4°C for 2 hours, immunoblotting
T4 sequence: T1 sequence with F264L

[5] = target: T5, His-tagged NSMCE3 (WT), recombinant human (human) (UniProt Q96MG7); test: SEC; purified NSMCE1-NSMCE3 complex on Superdex 200 Increase 5/150 GL in 20 mM HEPES.NaOH pH 7.5, 250 mM NaCl, 0.5 mM TCEP; both purified
T5 sequence: T1 sequence with F264L

[6] = target: T6, His-tagged NSMCE3 Leu264Phe, recombinant human (human) (UniProt Q96MG7); test: as above
T6 sequence: T1 sequence

[7] = target: T5, His-tagged NSMCE3 (WT), recombinant human (human); test: co-purification of co-expressed proteins; untagged NSMCE1 and His-tagged NSMCE3 coexpressed in and purified from E. coli; Coomassie-stained SDS-PAGE and immunodetection of the His tag
[8] = target: T6, His-tagged NSMCE3 Leu264Phe, recombinant human (human); test: as above

B3: Myc-tagged NSMCE1 (protein, UniProt Q8WV22 1-266)
chain: MQGSTRRMGVMTDVHRRFLQLLMTHGVLEEWDVKRLQTHCYKVHDRNATVDKLEDFINNINSVLESLYIEIKRGVTEDDGRPIYALVNLATTSISKMATDFAENELDLFRKALELIIDSETGFASSTNILNLVDQLKGKKMRKKEAEQVLQKFVQNKWLIEKEGEFTLHGRAILEMEQYIRETYPDAVKICNICHSLLIQGQSCETCGIRMHLPCVAKYFQSNAEPRCPHCNDYWPHEIPKVFDPEKERESGVLKSNKKSLRSRQH
binding [1]: binds | binding [4]: binds

B4: NSMCE1 (untagged), recombinant human (protein, UniProt Q8WV22 1-266)
chain: B3 chain
binding [5]: binds | binding [6]: binds | binding [7]: binds | binding [8]: binds

Results, then the binder that gave them:

binding [1]: binds
B1: SMC6 (protein, UniProt Q96SB8 1-1091)
chain: MAKRKEENFSSPKNAKRPRQEELEDFDKDGDEDECKGTTLTAAEVGIIESIHLKNFMCHSMLGPFKFGSNVNFVVGNNGSGKSAVLTALIVGLGGRAVATNRGSSLKGFVKDGQNSADISITLRNRGDDAFKASVYGNSILIQQHISIDGSRSYKLKSATGSVVSTRKEELIAILDHFNIQVDNPVSVLTQEMSKQFLQSKNEGDKYKFFMKATQLEQMKEDYSYIMETKERTKEQIHQGEERLTELKRQCVEKEERFQSIAGLSTMKTNLESLKHEMAWAVVNEIEKQLNAIRDNIKIGEDRAARLDRKMEEQQVRLNEAEQKYKDIQDKLEKISEETNARAPECMALKADVVAKKRAYNEAEVLYNRSLNEYKALKKDDEQLCKRIEELKKSTDQSLEPERLERQKKISWLKERVKAFQNQENSVNQEIEQFQQAIEKDKEEHGKIKREELDVKHALSYNQRQLKELKDSKTDRLKRFGPNVPALLEAIDDAYRQGHFTYKPVGPLGACIHLRDPELALAIESCLKGLLQAYCCHNHADERVLQALMKRFYLPGTSRPPIIVSEFRNEIYDVRHRAAYHPDFPTVLTALEIDNAVVANSLIDMRGIETVLLIKNNSVARAVMQSQKPPKNCREAFTADGDQVFAGRYYSSENTRPKFLSRDVDSEISDLENEVENKTAQILNLQQHLSALEKDIKHNEELLKRCQLHYKELKMKIRKNISEIRELENIEEHQSVDIATLEDEAQENKSKMKMVEEHMEQQKENMEHLKSLKIEAENKYDAIKFKINQLSELADPLKDELNLADSEVDNQKRGKRHYEEKQKEHLDTLNKKKRELDMKEKELEEKMSQARQICPERIEVEKSASILDKEINRLRQKIQAEHASHGDREEIMRQYQEARETYLDLDSKVRTLKKFIKLLGEIMEHRFKTYQQFRRCLTLRCKLYFDNLLSQRAYCGKMNFDHKNETLSISVQPGEGNKAAFNDMRALSGGERSFSTVCFILSLWSIAESPFRCLDEFDVYMDMVNRRIAMDLILKMADSQRFRQFILLTPQSMSSLPSSKLIRILRMSDPERGQTTLPFRPVTQEEDDDQR

binding [2]: binds | binding [3]: binds
B2: WT NSMCE1 fused to the Gal4-activation domain (protein, UniProt Q8WV22 1-266)
chain: B3 chain
